Construct, isoform or probe ends are uncertain for at least one entry. At least one verdict rests on a figure or table, not on a statement of the authors.
Test system: GapR1-89
Test: EMSA
Conditions: 10 uM protein, 1 uM DNA

“CGCGCGCGCGCG (double strand) [(dCG)6 12-mer]”: binds.

Source: paper doi:10.1101/804138
